Measurements: patent US6344223B1, “Food fortified with iron” (Nestec S.A, priority 2000, dated 2002)

Key:
Type in all cases: physicochemical
[1] = Discoloration of iron fortified NESQUIK powder reconstituted with boiling milk (total color difference, Hunter); settings: for NESQUIK powder (ΔE): 15.0 ppm final iron, reconstituted with boiling milk, 15 minutes at room temperature; for color change in fortified NESQUIK powder: 15 ppm iron
[2] = Discoloration of iron fortified MILO powder reconstituted with boiling water (total color difference, Hunter); settings: for MILO powder (ΔE): 15.0 ppm final iron, reconstituted with boiling water, 15 minutes at room temperature; for color change in fortified MILO powder: 15 ppm iron
[3] = Lipid oxidation induction time of fish oil by Metrohm Rancimat; settings: 100 C.

Row | Molecule | NESQUIK powder (ΔE) [1] | color change in fortified NESQUIK powder [1] | MILO powder (ΔE) [2] | color change in fortified MILO powder [2] | induction time less than control [3] | induction time ([3]; 50 ppm)
1 | O=P([O-])([O-])[O-].[Fe+2].[NH4+] [FeHN4PO4, ferrous ammonium phosphate] | 1.5 | minor color changes | 1.1 | minor color changes |  | 
2 | ferric sulfate |  |  |  |  | about 60% | 
3 | ferrous sulfate [FeSO4] | 10.3 | significant color change | 10.5 | significant color change | 50-60% | 2.5 h
